No constants are given. Whether binding was seen depends on the method and setting. In cells and extracts the contact can be indirect. Some binding calls cover weakened binding; strength is not graded here. Sequences can lack the tags named with a protein.

Chains of the proteins cited; added tags and fusions are not shown.
UniProt P18850: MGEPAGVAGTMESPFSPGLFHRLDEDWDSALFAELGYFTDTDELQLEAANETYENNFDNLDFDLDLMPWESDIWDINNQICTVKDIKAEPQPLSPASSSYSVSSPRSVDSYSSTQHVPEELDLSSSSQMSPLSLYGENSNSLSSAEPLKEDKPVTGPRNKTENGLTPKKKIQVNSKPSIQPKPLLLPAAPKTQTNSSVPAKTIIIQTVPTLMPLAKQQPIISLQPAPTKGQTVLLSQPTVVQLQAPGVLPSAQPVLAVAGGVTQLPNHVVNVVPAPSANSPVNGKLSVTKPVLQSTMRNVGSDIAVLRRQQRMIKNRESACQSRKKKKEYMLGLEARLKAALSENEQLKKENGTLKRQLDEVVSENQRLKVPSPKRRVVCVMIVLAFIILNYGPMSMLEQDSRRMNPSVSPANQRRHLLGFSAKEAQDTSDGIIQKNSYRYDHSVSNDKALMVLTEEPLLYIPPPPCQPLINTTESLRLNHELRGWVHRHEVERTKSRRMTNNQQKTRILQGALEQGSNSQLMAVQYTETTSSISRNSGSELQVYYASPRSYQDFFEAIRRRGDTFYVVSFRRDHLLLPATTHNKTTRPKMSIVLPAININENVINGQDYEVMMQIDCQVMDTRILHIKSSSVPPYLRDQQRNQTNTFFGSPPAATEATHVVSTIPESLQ
UniProt Q96G97: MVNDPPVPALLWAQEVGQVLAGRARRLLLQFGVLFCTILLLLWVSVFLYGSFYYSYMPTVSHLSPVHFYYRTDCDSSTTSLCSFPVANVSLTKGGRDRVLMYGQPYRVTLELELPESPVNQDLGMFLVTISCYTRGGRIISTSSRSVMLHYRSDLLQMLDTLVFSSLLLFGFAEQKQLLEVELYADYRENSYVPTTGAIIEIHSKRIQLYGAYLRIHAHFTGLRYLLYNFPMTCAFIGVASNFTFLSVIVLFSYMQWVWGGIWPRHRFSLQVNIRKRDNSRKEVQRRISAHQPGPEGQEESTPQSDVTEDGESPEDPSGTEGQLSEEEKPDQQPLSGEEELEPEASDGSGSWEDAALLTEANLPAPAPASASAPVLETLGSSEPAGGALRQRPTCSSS

The target in assay [1] is T1, Flag-tagged promethin (human) (UniProt Q96B96).
T1 sequence: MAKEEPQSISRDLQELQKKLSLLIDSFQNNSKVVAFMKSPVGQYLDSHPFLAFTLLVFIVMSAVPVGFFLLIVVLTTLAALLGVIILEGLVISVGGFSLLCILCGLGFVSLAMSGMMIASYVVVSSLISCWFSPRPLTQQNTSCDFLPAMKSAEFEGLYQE
As to the kind of experiment: co-IP; Flag-promethin and seipin-Myc co-expressed in MCF7 cells, 200 µM oleic acid for 48 h; lysis in 25 mM Tris HCl pH 7.5, 150 mM NaCl, 0.5 mM EDTA, 1% NP-40; anti-FLAG beads 2 h at 4 °C; elution with 0.2 M glycine pH 2.5; Western blot. In general terms: In western blotting, separated proteins are transferred to a membrane and probed.

Assay [2] deals with T1, Flag-tagged promethin (human). As to the kind of experiment: co-IP; FLAG-tagged promethin and myc-tagged seipin forms co-expressed in HEK293 cells; anti-FLAG agarose beads; elution with 3xFLAG peptide in TBS; Western blot.
Assay [3] addresses T2, human promethin-GFP expressed in yeast (human) (UniProt Q96B96).
T2 sequence: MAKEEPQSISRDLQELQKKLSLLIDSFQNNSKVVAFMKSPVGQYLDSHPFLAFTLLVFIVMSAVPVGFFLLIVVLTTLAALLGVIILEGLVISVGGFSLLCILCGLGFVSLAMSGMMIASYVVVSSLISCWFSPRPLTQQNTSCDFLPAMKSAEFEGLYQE
The experiment in a line: co-IP; human promethin-GFP expressed in yeast; lysis in 50 mM Tris HCl pH 7, 150 mM NaCl, 1% digitonin; GFP-trap 1 h at 4 °C; elution with 0.2 M glycine pH 2.5; Western blot with antibodies against Sei1 and Ldb16.

As for “ATF6 (endogenous in MCF7 cells) (from UniProt P18850 1-670)”, in assay [1], the binding result is recorded as “no binding”. On to “myc-tagged seipin, short form (seipin-S) (from UniProt Q96G97 1-398)”, for which, in assay [2], the binding result is on record as “binds”.

B1: Ldb16 (protein, UniProt P25587 1-256)
chain: MFVVDWSVQLCMGVISPLFRALVQLPLSIFVWNGFQLVALPINIPLRLFLGTSLSRLVAQTSTLDFYVVLTLFQYFAVLCAFGSIIGLIFGFILGVFHSICGVPSVYISLEWKRWFAPIRTVLERASTSIVNIMRGQTIAPIPMPKPNPTHISKPNMKKFHDEPGADDMTITHDVNCYITPCQTPTNEKIQHYNNDSFNTTTTDDEPTDIWDRSDTYQNSFVTNETLMSLSNRAKLRRNASDADIVNIKILRRNSR
B1: in assay [3], the binding result was “binds”.

B2: Sei1 (protein, UniProt Q06058 1-285)
chain: MKINVSRPLQFLQWSSYIVVAFLIQLLIILPLSILIYHDFYLRLLPADSSNVVPLNTFNILNGVQFGTKFFQSIKSIPVGTDLPQTIDNGLSQLIPMRDNMEYKLDLNLQLYCQSKTDHLNLDNLLIDVYRGPGPLLGAPGGSNSKDEKIFHTSRPIVCLALTDSMSPQEIEQLGPSRLDVYDEEWLNTIRIEDKISLESSYETISVFLKTEIAQRNLIIHPESGIKFRMNFEQGLRNLMLRKRFLSYIIGISIFHCIICVLFFITGCTAFIFVRKGQEKSKKHS
Consider B2, for which, in assay [3], the binding result is recorded as “binds”.

(Values after article PMC6468817.)
